The list shows a part of the results. Repeats in this data set agree poorly, so a single value says little.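 Fusion between ACE2-bearing and full-length-spike-bearing U2OS cells was measured by imaging as the percentage of nuclei with both cell types' fluorescent markers. An inhibitory hit is a non-toxic compound whose fusion z-score is below -3, more than three standard deviations beneath the plate's DMSO wells.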
The compounds below were run on U2OS ACE2 x SARS-CoV-2 spike co-culture (assay: cell-cell fusion (fraction fused) z-score vs plate DMSO control; higher = more fusion). Conditions: 30 µM; 5 h; toxicity class: non-toxic, passed QC.

Structure (SMILES) | cell-cell fusion (z-score)
Cc1ccc(C(=O)Nc2cccc(C(F)(F)F)c2)cc1Nc1nc(-c2cccnc2)nc2c1cnn2C | inactive: 0.771
CC1COc2c(N3CCN(C)CC3)c(F)cc3c(=O)c(C(=O)O)cn1c23 (configuration not stated) [Ofloxacin] | inactive: 2.87
CCC(C(=O)[O-])c1ccccc1.[Na+] (configuration not stated) | inactive: 4.59
Nc1nc(=O)c2c([nH]1)NCC(CNc1ccc(C(=O)N[C@@H](CCC(=O)[O-])C(=O)[O-])cc1)N2C=O.[Ca+2] (some centres not stated) [Calcium folinate] | inactive: 3.69
CCCCCCCCCC(=O)NC(CN1CCOCC1)[C@H](O)c1ccccc1.Cl (mixture of isomers) | inactive: 0.405
O=c1[nH]cc(F)c(=O)[nH]1 [Fluorouracil] | inactive: 2.25
CCNC(=O)Nc1ccc(-c2nc3c(c(N4CCOC[C@@H]4C)n2)CCN(C2COC2)C3)cc1 | inactive: 0.916
CN1C2CCCC1CC(NC(=O)c1nn(C)c3ccccc13)C2.Cl (configuration not stated) [Granisetron hydrochloride] | inactive: 1.04
COC(=O)C[C@H]1C(C)(C)[C@@H](O)[C@@H]2CC3=C4C=C(OC)O[C@@H](c5ccoc5)[C@]4(C)CCC3[C@@]1(C)C2=O (stereo partly drawn) [3-DEOXO-3beta-HYDROXYMEXICANOLIDE 16-ENOL ETHER] | inactive: 2.32
[Na+].CO[C@@H]1[C@@H](OC(N)=O)[C@@H](O)[C@H](Oc2ccc3c([O-])c(NC(=O)c4ccc(O)c(C\C=C(\C)C)c4)c(=O)oc3c2C)OC1(C)C [Novobiocin Sodium] | inactive: 3.48
Nc1ncnc2c1nc(Sc1ccc(Cl)cc1)n2C1OC2CO[P@@](=O)([O-])O[C@@H]2[C@@H]1O.[Na+] (some centres not stated) [8-(4-Chlorophenylthio)-cAMP sodium] | inactive: 1.87
COC(=O)[C@H]1[C@H]2C[C@H]3c4[nH]c5ccccc5c4CCN3C[C@H]2CC[C@@H]1O.Cl | inactive: 3.74
CC(C)(S)C(N)C(=O)O (racemic) [DL-Penicillamine] | inactive: 1.82
CCCCCCCCNC(C)C(O)c1ccc(SC(C)C)cc1 (configuration not stated) | inactive: 3.1
CC(=O)c1ccc(S(=O)(=O)NC(=O)NC2CCCCC2)cc1 [Acetohexamide] | inactive: 3.4
CC(=O)O[C@H]1C[C@@H](OC(C)=O)C(C)(C)C2CC(=O)[C@]3(C)C(CC[C@@]4(C)[C@H](c5ccoc5)OC(=O)[C@H]5O[C@]543)[C@]21C (some centres not stated) | inactive: 2.88
COc1cc(N2CCC(N3CCN(C)CC3)CC2)ccc1Nc1ncc(Cl)c(Nc2ccccc2S(=O)(=O)C(C)C)n1 | inactive: 1.35

A second format for 2 compounds above.
Structure (SMILES)	cell-cell fusion (z-score)
Cc1ccc(C(=O)Nc2cccc(C(F)(F)F)c2)cc1Nc1nc(-c2cccnc2)nc2c1cnn2C	inactive: 0.771
CC1COc2c(N3CCN(C)CC3)c(F)cc3c(=O)c(C(=O)O)cn1c23 (configuration not stated) [Ofloxacin]	inactive: 2.87

— the supplement of paper PMC8104966
